From patent publication US20160046579A1, “THERAPEUTIC COMPOUNDS AND COMPOSITIONS” (AGIOS PHARMACEUTICALS, INC., priority 2013, published 2016)
Structures were worked out from names or drawings and are uncertain.

Protein sequences, listed by entry. Tags and fused reporters are not part of them. Lines headed by an entry give the natural chain unless they say otherwise; changes in a name come on top.
UniProt P30613, whole entry: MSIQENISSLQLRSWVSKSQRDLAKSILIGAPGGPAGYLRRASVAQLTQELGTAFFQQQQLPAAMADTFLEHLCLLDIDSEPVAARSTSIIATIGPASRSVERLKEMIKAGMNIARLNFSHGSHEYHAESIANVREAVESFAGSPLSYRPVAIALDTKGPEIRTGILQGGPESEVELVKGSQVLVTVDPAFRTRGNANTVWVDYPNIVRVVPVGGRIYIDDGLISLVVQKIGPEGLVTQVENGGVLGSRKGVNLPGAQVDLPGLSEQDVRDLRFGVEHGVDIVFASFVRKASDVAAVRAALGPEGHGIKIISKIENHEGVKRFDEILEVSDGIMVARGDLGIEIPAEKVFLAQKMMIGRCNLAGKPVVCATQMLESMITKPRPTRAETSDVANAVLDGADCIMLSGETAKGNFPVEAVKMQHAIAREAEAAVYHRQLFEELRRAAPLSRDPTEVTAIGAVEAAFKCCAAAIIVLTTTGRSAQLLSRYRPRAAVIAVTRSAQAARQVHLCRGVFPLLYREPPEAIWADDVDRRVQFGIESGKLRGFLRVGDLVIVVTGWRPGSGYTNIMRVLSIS
UniProt P30613, whole entry R510Q: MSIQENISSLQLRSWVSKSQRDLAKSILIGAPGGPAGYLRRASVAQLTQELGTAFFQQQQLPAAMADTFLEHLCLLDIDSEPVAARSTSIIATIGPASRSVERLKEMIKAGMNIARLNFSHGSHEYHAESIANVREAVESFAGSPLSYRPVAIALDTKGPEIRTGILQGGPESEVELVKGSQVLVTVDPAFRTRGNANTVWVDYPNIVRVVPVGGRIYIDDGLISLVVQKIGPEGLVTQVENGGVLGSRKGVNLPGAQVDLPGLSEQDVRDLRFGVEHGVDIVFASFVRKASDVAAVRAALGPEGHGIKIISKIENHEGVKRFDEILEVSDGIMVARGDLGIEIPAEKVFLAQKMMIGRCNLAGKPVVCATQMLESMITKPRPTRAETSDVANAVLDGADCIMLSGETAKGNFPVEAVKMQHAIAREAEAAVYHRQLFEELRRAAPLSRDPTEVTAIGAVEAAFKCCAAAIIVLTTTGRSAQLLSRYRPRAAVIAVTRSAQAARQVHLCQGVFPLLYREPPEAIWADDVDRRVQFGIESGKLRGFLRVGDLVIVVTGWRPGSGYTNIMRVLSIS
UniProt P30613, whole entry R532W: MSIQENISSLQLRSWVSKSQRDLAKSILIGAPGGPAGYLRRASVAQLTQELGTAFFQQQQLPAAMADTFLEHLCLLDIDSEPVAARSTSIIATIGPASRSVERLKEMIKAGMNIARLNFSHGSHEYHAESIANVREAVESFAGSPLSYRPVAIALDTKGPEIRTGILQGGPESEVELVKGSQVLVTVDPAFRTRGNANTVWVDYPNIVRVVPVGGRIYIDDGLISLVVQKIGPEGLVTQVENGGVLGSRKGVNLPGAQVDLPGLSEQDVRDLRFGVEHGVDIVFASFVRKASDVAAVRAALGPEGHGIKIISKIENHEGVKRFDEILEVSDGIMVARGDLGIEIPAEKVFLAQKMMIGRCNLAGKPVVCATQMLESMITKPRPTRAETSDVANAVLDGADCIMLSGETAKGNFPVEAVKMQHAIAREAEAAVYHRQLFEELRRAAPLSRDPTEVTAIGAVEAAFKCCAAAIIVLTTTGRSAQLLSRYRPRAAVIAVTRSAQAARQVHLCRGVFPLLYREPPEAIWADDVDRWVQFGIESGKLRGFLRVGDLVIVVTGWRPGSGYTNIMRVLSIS

How the values were obtained:
PKR R532W = PKR R532W (Homo sapiens, UniProt P30613, R532W); assay: PKR Mutant Assay, dose response (AC50), PKR R532W; settings: read-out: PKR R532W AC50; PKR R532W mutant enzyme
Experimental: (§1) • PKR or PKR mutant enzyme solution was diluted in assay buffer. • 2 μL of test compound was added into wells first, and then 180 μL reaction mix was added. • Reactions mixture with test compound was assembled except for ADP, and plates were stored for 60 minutes at room temperature. • 20 uL ADP was added to start reaction at room temperature and reaction progress was measured as changes in absorbance at 340 nm wavelength at room temperature.
(§2) Test Compound Preparation: • Test compound stock was made at 100× concentration in 100% DMSO (10 mM) • 1 to 3 dilutions were made for 11 points (i.e. 50 μl of first concentration added to 100 μl 100% DMSO to yield 3.33 mM, 50 μl of this added to 100 μl DMSO to yield 1.11 mM, and so forth) • 1 to 100 dilution into assay (2 μl in 200 μl) yielded starting concentration of 100 μM, decreasing 3 fold for 11 points.

PKR R510Q = PKR R510Q (Homo sapiens, UniProt P30613, R510Q); assay: PKR Mutant Assay, dose response (AC50), PKR R510Q; settings: read-out: PKR R510Q AC50; PKR R510Q mutant enzyme
Experimental: as §1, §2

wt PKR [1] = target: T1, wt PKR (Homo sapiens, UniProt P30613); assay: PKR Mutant Assay, dose response (AC50), wild type PKR enzyme; settings: read-out: PKR WT AC50
Experimental: as §1, §2

wt PKR [2] = target: T1, wt PKR; assay: wt PKR cell based assay; settings: read-out: PKR WT Cell Based AC50

O=C(c1ccc(NS(=O)(=O)c2cccc3c2OCC3)cc1)N1CCC(O)(c2ccccc2Cl)CC1
AC50 (PKR R532W): 1010 to 10000 nM
AC50 (PKR R510Q): > 10000 nM
AC50 (wt PKR [1]): 1010 to 10000 nM

O=C(c1ccc(NS(=O)(=O)c2cccc3nccnc23)cc1)N1CCC(O)(c2ncc(Cl)s2)CC1
AC50 (PKR R532W): 101 to 1000 nM
AC50 (PKR R510Q): 1010 to 10000 nM
AC50 (wt PKR [1]): 101 to 1000 nM

O=C(c1ccc(NS(=O)(=O)c2cccc3cccnc23)cc1)N1CCC(O)(c2cccc(Cl)c2)CC1
AC50 (PKR R532W): < 100 nM
AC50 (PKR R510Q): 101 to 1000 nM
AC50 (wt PKR [2]): < 100 nM
AC50 (wt PKR [1]): < 100 nM
